Measurements from the supplement of paper PMC10849652.
This is one part of the list.

Amino acid sequences for entries named in this document (tags omitted). A change or cut given only in a name is not applied to a line headed by its entry.
UniProt Q8TBQ9: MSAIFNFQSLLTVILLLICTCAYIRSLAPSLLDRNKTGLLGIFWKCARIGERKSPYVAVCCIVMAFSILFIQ
UniProt Q7Z7H5: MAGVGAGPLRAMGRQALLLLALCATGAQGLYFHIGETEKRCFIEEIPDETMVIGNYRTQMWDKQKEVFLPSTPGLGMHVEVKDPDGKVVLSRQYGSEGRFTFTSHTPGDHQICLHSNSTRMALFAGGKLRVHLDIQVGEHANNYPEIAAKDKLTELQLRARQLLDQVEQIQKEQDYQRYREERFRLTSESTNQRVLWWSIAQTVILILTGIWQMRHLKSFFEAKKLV
UniProt Q9Y4G6: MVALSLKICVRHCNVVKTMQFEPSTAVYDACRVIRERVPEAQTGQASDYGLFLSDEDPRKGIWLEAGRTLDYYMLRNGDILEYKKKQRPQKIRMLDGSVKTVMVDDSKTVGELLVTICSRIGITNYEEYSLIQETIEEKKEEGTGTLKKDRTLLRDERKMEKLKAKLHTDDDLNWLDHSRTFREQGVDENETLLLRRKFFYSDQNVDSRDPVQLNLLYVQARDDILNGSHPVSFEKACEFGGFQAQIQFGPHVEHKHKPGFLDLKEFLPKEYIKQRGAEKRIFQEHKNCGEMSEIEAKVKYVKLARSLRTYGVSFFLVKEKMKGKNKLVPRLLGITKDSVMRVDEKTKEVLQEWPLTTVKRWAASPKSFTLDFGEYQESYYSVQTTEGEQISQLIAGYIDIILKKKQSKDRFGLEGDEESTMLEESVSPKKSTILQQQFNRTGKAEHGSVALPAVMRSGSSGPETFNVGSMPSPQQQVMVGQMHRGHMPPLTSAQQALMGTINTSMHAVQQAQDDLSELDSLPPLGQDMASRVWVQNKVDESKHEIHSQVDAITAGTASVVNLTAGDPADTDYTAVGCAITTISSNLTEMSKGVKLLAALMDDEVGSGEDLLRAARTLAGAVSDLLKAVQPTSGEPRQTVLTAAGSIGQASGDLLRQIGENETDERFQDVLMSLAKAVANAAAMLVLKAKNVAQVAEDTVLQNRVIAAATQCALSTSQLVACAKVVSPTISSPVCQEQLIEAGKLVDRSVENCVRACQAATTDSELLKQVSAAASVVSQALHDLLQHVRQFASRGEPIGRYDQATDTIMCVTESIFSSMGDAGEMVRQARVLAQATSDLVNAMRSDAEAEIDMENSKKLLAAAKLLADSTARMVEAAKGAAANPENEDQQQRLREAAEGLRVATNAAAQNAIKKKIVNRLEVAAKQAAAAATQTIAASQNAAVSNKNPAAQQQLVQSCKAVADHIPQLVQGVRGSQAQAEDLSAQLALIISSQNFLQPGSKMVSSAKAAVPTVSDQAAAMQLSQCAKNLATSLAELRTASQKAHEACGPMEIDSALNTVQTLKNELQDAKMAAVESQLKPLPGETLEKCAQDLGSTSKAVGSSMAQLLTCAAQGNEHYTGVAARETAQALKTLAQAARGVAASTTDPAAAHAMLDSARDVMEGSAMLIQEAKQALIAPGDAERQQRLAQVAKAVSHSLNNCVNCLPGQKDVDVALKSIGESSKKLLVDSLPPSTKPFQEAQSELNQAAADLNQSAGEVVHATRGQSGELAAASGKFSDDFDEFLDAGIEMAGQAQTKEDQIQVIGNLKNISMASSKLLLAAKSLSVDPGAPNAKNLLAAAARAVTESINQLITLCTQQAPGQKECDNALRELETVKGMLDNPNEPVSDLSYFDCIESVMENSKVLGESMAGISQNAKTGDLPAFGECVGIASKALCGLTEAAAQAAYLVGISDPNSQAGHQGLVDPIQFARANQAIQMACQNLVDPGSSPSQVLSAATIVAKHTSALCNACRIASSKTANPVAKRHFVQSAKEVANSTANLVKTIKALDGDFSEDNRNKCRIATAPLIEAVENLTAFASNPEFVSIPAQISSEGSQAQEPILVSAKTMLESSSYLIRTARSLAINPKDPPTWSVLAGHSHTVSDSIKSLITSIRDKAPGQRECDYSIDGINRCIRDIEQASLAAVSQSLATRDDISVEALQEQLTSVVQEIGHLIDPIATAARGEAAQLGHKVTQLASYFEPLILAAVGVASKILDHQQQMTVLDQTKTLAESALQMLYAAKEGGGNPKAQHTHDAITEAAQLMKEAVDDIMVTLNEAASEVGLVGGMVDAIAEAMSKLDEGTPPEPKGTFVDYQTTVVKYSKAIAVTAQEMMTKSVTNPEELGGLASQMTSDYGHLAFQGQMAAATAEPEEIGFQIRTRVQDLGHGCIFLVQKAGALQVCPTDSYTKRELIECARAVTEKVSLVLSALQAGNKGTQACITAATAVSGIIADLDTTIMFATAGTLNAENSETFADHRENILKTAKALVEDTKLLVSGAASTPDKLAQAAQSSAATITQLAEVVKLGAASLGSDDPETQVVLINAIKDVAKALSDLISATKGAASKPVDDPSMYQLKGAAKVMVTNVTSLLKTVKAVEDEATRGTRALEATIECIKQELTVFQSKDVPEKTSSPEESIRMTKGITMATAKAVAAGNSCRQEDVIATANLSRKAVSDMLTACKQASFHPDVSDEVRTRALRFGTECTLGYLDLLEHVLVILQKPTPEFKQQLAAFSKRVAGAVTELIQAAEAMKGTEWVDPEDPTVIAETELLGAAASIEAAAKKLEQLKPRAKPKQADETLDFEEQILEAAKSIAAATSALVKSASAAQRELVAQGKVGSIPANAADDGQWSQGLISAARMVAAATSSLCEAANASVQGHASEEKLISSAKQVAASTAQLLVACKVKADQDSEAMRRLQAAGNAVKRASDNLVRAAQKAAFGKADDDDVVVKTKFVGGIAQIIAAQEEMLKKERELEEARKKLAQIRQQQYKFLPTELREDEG
UniProt Q9BVC6: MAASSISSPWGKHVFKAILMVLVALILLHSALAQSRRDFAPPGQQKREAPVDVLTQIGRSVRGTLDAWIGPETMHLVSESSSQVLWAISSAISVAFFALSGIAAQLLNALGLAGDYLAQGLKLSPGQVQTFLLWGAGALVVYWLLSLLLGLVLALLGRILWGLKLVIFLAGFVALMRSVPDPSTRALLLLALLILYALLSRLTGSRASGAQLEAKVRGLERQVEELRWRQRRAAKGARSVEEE
UniProt Q96B77: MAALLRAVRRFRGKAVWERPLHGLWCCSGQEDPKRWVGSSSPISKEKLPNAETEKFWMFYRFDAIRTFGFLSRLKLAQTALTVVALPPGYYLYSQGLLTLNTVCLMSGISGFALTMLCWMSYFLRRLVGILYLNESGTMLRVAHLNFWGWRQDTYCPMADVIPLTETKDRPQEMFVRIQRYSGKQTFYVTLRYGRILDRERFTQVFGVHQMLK
UniProt Q96I45: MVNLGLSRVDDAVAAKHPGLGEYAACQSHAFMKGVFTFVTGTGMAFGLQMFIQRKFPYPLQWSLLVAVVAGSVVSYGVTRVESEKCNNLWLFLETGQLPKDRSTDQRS
UniProt Q8NBN3: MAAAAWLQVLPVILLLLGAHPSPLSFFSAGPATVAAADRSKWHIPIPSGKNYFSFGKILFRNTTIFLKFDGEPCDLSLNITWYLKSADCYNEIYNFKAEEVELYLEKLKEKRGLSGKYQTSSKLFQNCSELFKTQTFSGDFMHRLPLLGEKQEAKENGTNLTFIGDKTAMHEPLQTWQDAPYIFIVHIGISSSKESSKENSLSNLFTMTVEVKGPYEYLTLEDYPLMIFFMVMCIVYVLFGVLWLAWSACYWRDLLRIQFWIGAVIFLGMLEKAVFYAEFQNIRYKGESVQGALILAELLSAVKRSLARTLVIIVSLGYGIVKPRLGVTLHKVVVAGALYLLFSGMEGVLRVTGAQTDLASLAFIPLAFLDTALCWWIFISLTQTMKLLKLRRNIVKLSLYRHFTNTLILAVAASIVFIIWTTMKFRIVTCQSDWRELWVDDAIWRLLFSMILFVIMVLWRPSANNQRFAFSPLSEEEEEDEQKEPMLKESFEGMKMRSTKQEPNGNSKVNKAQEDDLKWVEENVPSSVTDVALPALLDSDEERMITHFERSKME
UniProt O14763, whole entry, looked up: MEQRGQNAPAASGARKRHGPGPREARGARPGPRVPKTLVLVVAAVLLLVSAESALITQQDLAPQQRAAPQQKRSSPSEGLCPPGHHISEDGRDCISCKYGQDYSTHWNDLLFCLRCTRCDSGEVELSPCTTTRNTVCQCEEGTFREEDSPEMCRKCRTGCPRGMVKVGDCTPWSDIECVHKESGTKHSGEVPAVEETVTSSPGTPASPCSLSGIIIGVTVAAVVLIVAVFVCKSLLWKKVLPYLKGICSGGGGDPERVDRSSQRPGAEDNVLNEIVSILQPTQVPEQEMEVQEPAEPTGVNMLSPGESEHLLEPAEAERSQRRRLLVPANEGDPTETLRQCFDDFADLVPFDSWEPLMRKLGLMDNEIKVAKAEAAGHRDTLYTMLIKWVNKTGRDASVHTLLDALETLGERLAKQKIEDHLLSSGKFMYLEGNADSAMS
UniProt Q9NX00: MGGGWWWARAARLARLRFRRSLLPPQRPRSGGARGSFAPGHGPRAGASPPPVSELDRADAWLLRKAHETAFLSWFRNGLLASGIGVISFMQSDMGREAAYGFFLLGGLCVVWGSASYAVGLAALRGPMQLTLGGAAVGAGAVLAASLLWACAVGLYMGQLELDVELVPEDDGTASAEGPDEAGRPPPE
UniProt P42167: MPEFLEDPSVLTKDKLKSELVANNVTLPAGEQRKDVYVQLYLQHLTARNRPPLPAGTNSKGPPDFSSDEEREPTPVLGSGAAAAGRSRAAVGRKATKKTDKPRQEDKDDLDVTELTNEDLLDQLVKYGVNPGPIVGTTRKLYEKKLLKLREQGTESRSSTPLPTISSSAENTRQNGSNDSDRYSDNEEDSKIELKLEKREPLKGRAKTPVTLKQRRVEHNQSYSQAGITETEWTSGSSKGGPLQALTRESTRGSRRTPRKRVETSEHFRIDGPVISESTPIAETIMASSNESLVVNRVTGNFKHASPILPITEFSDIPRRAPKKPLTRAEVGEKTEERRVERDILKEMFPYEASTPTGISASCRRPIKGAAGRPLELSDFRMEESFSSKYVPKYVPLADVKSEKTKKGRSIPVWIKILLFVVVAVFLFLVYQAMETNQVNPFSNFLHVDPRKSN
UniProt Q9H7F4: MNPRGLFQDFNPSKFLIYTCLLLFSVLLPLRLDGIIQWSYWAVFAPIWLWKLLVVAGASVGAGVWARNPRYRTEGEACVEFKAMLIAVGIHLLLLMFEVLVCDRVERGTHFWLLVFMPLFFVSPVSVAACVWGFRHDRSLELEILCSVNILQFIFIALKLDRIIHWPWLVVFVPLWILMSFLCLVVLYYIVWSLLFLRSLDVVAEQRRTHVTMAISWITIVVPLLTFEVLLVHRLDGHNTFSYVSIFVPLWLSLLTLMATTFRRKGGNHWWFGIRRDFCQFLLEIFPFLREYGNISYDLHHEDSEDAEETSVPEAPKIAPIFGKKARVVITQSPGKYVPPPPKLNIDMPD
UniProt Q9NV96: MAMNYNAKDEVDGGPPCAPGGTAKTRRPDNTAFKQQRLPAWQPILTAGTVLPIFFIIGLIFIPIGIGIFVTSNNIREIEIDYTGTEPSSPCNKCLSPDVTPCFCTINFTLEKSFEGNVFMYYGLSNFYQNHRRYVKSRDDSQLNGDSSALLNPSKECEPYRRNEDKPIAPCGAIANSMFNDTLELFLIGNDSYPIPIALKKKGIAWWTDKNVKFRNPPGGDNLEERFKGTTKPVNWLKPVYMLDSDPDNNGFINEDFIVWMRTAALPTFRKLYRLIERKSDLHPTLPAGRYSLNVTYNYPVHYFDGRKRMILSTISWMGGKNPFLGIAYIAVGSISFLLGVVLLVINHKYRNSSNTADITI
UniProt Q9H1E5: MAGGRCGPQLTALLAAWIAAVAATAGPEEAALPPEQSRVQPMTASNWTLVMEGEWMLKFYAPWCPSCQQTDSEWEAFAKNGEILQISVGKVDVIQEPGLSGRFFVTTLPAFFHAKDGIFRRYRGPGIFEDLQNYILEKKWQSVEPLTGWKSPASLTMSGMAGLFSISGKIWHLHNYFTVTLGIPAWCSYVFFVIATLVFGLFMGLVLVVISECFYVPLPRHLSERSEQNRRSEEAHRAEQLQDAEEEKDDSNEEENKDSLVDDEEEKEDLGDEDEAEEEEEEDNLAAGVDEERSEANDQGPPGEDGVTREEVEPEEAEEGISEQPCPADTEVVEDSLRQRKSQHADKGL
UniProt P63313: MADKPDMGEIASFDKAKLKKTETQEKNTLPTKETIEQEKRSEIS
UniProt Q9Y3Q3: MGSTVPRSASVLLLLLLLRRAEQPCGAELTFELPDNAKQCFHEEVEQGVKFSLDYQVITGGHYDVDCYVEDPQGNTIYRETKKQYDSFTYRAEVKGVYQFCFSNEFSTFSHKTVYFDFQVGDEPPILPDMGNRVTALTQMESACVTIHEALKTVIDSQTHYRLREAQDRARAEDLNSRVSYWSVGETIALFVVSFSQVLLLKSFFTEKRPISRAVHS
UniProt P17152: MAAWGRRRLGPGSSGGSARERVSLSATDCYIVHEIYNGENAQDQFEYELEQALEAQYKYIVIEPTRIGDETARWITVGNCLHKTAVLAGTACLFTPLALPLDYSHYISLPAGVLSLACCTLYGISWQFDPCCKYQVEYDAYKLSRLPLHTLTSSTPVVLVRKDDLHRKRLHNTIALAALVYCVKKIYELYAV

These targets were tested with COc1cc2nc(-c3cc(F)ccc3O)nc(N[C@@H]3CNC[C@H]3C(C)(C)O)c2cc1OC (assay: log2 fold change, soluble protein after heating vs DMSO (PISA); higher = thermal stabilisation; K562 cells, 10 uM, 30 min; active = over 0.2 and 3.5 SD of the protein, either way, in both replicates (recomputed)).
In short: (§1)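 K562 cells at 2×10^6 cells/mL were given 10 μM compound for 30 min. Aliquots then went through 3 min of heating across 48°C-58°C, were pooled, and were extracted in PBS with 0.5% NP-40 at 4°C, and the supernatant after 21,000xg for 90 min was quantified by TMTpro 16plex LC-MS/MS with channel sums equalised. Thermal stability relative to control samples, from duplicates, is given as log2 fold change.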

log2 fold change, inactive:
TMEM245 (UniProt Q9H330) 0
TMEM167A (UniProt Q8TBQ9) -0.076
TMOD2 (UniProt Q9NZR1) -0.311
TMED4 (UniProt Q7Z7H5) -0.008
TMEM14C (UniProt Q9P0S9) -0.019
TLN2 (UniProt Q9Y4G6) -0.018
TMEM109 (UniProt Q9BVC6) 0.009
TM2D3 (UniProt Q9BRN9) -0.137
TMEM186 (UniProt Q96B77) -0.035
TMEM141 (UniProt Q96I45) -0.01
TMEM65 (UniProt Q6PI78) -0.085
TMEM87A (UniProt Q8NBN3) 0.024
TMEM33 (UniProt P57088) -0.146
TLN1 (UniProt Q9Y490) 0.031
TNFRSF10B (UniProt O14763) 0.046
TMEM160 (UniProt Q9NX00) -0.075
TM9SF3 (UniProt Q9HD45) 0.133
TMPO isoform 2 (UniProt P42167) -0.001
TMOD3 (UniProt Q9NYL9) 0.012
TMEM222 (UniProt Q9H0R3) -0.025
TMEM185B (UniProt Q9H7F4) -0.055
TMA16 (UniProt Q96EY4) -0.07
TMEM30A (UniProt Q9NV96) -0.093
TMEM68 (UniProt Q96MH6) 0.001
TMCO1 (UniProt Q9UM00) -0.098
TMED2 (UniProt Q15363) -0.02
TMX4 (UniProt Q9H1E5) 0.063
TMEM168 (UniProt Q9H0V1) 0.028
TMPO (UniProt P42166) 0.014
TMEM259 (UniProt Q4ZIN3) -0.021
TMSB10 (UniProt P63313) -0.049
TMEM248 (UniProt Q9NWD8) 0.088
TMED3 (UniProt Q9Y3Q3) 0.038
TMEM209 (UniProt Q96SK2) 0
TMEM230 isoform 2 (UniProt Q96A57) -0.003
TMED1 (UniProt Q13445) -0.059
TMPO (UniProt P42167) 0.019
TMEM62 (UniProt Q0P6H9) -0.064
TMEM11 (UniProt P17152) 0.012

The targets below were run with COc1cc2ncnc(Nc3ccc(F)c(Cl)c3)c2cc1OCCCN1CCOCC1 [gefitinib] in the same assay as above.
In short: as §1

log2 fold change, inactive:
TMEM245 (UniProt Q9H330) 0.024
TMEM167A (UniProt Q8TBQ9) 0.035
TMOD2 (UniProt Q9NZR1) 0.035
TMED4 (UniProt Q7Z7H5) 0.003
TMEM14C (UniProt Q9P0S9) -0.028
TLN2 (UniProt Q9Y4G6) -0.053
TMEM109 (UniProt Q9BVC6) 0.013
TM2D3 (UniProt Q9BRN9) -0.019
TMEM186 (UniProt Q96B77) 0.001
TMEM141 (UniProt Q96I45) 0.117
TMEM65 (UniProt Q6PI78) -0.01
TMEM87A (UniProt Q8NBN3) 0.079
TMEM33 (UniProt P57088) 0.012
TLN1 (UniProt Q9Y490) 0.014
TNFRSF10B (UniProt O14763) 0.044
TMEM160 (UniProt Q9NX00) 0.007
TM9SF3 (UniProt Q9HD45) 0.107
TMPO isoform 2 (UniProt P42167) 0.06
TMOD3 (UniProt Q9NYL9) 0.03
TMEM222 (UniProt Q9H0R3) -0.026
TMEM185B (UniProt Q9H7F4) -0.099
TMA16 (UniProt Q96EY4) 0.045
TMEM30A (UniProt Q9NV96) -0.007
TMEM68 (UniProt Q96MH6) 0
TMCO1 (UniProt Q9UM00) 0.002
TMED2 (UniProt Q15363) 0.013
TMX4 (UniProt Q9H1E5) 0.076
TMEM168 (UniProt Q9H0V1) 0.008
TMPO (UniProt P42166) 0.028
TMEM259 (UniProt Q4ZIN3) 0.02
TMSB10 (UniProt P63313) 0.019
TMEM248 (UniProt Q9NWD8) -0.023
TMED3 (UniProt Q9Y3Q3) 0.144
TMEM209 (UniProt Q96SK2) -0.01
TMEM230 isoform 2 (UniProt Q96A57) -0.001
TMED1 (UniProt Q13445) 0.061
TMPO (UniProt P42167) 0.074
TMEM62 (UniProt Q0P6H9) 0.034
TMEM11 (UniProt P17152) 0.071
